Experimental data as given in patent publication US20260000698A1 (priority 2022, published 2026).
Some results were stated once for a whole list of compounds, not compound by compound.

System: SARS-CoV-2 isolate USA-WA1/2020

Row | SMILES | antiviral activity at 50 μM
1 | Nc1ncnc2c1ncn2[C@@H]1O[C@H](CNCc2ccc3ccccc3c2)[C@@H](O)[C@H]1O [Compound 1, (2R,3R,4S,5R)-2-(6-Amino-9H-purin-9-yl)-5-(((naphthalen-2-ylmethyl)amino)methyl)tetrahydrofuran-3,4-diol] | no significant antiviral activity
2 | Nc1ncnc2c1ncn2[C@@H]1O[C@H](CNC(=O)c2ccc3ccccc3c2)[C@@H](O)[C@H]1O [Compound 2, N-(((2R,3S,4R,5R)-5-(6-Amino-9H-purin-9-yl)-3,4-dihydroxytetrahydrofuran-2-yl)methyl)-2-naphthamide] | no significant antiviral activity
3 | Nc1ncnc2c1ncn2[C@@H]1O[C@H](CNS(=O)(=O)c2ccc3ccccc3c2)[C@@H](O)[C@H]1O [Compound 3, N-(((2R,3S,4R,5R)-5-(6-Amino-9H-purin-9-yl)-3,4-dihydroxytetrahydrofuran-2-yl)methyl)naphthalene-2-sulfonamide] | no significant antiviral activity
4 | Nc1ncnc2c1ncn2[C@@H]1O[C@H](CNS(=O)(=O)c2ccc3cccnc3c2)[C@@H](O)[C@H]1O [Compound 4, N-(((2R,3S,4R,5R)-5-(6-Amino-9H-purin-9-yl)-3,4-dihydroxytetrahydrofuran-2-yl)methyl)quinoline-7-sulfonamide] | no significant antiviral activity
